Data: the supplement of paper PMC3334620
Whole data set: some 33,000 sequences, median “E-score (-0.5 to 0.5)” near -0.016, cut for the highest 2% near 0.3. This is one part of the list.

Each sequence was assayed against T1, Yer184c (UniProt P39961) (assay: PBM E-score (8-mer binding enrichment) (E-score (-0.5 to 0.5)); higher = stronger / more preferred TF binding). Settings: protein concentration: 100 nM; construct: GST-full length.
T1 sequence: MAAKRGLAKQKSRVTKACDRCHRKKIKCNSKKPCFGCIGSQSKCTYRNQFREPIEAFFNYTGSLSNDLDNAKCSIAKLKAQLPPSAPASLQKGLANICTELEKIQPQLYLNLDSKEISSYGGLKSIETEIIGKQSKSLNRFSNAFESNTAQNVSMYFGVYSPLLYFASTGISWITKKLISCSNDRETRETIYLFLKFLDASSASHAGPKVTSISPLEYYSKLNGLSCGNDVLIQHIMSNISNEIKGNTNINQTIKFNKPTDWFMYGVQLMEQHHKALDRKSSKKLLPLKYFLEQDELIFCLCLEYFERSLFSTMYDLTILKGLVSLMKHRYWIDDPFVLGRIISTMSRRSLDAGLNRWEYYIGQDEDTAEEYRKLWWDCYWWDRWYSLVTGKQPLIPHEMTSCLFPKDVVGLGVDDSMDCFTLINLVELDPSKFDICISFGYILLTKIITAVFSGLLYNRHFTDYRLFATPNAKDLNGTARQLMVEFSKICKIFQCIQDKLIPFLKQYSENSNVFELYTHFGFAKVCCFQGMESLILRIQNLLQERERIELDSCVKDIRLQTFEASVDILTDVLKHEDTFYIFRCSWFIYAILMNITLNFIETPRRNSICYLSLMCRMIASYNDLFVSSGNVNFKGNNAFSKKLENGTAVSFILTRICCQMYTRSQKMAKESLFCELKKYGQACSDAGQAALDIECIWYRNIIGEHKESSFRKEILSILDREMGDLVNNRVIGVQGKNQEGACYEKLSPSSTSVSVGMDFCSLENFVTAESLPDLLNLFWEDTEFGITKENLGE
Procedure, shortened: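 Bound GST-tagged yeast transcription factors, applied at about 100-200 nM to double-stranded universal all-10-mer Agilent arrays, were detected with fluorescent anti-GST. Scans were normalised with masliner. A modified Wilcoxon-Mann-Whitney statistic, the E-score, was assigned to each ungapped eight-base word pooled with its reverse complement by the Universal PBM Analysis Suite.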

| Sequence | PBM E-score |
| --- | --- |
| ACTTTGCA | 0.167 |
| TACTCAAA | 0.0981 |
| CCGTGTTC | 0.228 |
| CCAGCCTA | -0.206 |
| ATTGGTAC | 0.0114 |
| AACGAATC | 0.15 |
| TACATGCA | -0.0786 |
| CCCTTCCA | -0.0759 |
| ACGATATC | 0.0286 |
| GATTGAAC | 0.067 |
| ACCCAACT | -0.126 |
| AACCCCGC | -0.133 |
| CAAAAACA | 0.101 |
| AATGCTCG | -0.0329 |
| AATTGTTA | 0.201 |
| CAATAAAC | 0.204 |
| CCCCGCAA | 0.0469 |
| CCACCTTC | -0.234 |
| CAGTGAGG | -0.341 |
| GGTTCGAA | 0.204 |
| CCTCTCAA | -0.0234 |
| AGTCCCAT | -0.173 |
| TCTGTCCA | 0.0909 |
| CGGATTTC | 0.276 |
| AGAGTTTC | -0.0656 |

| Sequence | PBM E-score |
| --- | --- |
| GAACCCTA | 0.0642 |
| CAGGAGTA | 0.0208 |
| TCAGGGGA | -0.252 |
| AAATCTCG | 0.141 |
| GTCCGCAC | 0.0405 |
| ACGGACGT | -0.0269 |
| CAATTGCA | 0.0126 |
| GATGAGCA | 0.0238 |
| CACAAAGC | 0.0873 |
| AATAGAAA | 0.0955 |
| ACAAGCAG | -0.0511 |
| CACTTGCG | -0.0504 |
| ATGTGCGC | -0.084 |
| CAGTGGAG | -0.0375 |
| CGGCTTCA | 0.345 |
| AGGCGTAG | -0.116 |
| CCCGACCA | -0.0598 |
| CGCTCGGC | 0.276 |
| CCAAGTCG | 0.00149 |
| GCAGATAA | 0.223 |
| AATTATGA | 0.211 |
| CGAACTGA | 0.0692 |
| CGGAGACG | 0.259 |
| CGCCACTA | -0.227 |
| GAACTCCA | 0.0527 |

| Sequence | PBM E-score |
| --- | --- |
| TCCACAGA | -0.0958 |
| CGCCTAAG | -0.0821 |
| ATCGTGCG | 0.226 |
| GCCGCTGA | 0.124 |
| AATGCTGA | -0.0887 |
| GACCCTCA | -0.177 |
| GTATAAGA | -0.1 |
| CGAAGTCC | -0.063 |
| ATATACGC | -0.147 |
| TGCCCGCA | 0.041 |
| AGCTTACG | -0.138 |
| CCCACCTC | -0.329 |
| GAGACAGC | -0.0205 |
| AGTGCTGG | -0.157 |
| GCCAGACA | 0.015 |
| GGTGTCAC | -0.0719 |
| ATACCGGG | 0.152 |
| CTACTGAC | -0.0616 |
| AGGCGAGG | -0.204 |
| ACAAACTG | -0.107 |
| ATGTTATC | 0.155 |
| CGGGAAGA | 0.315 |
| ATTCTCTG | -0.057 |
| GAGCTATA | -0.245 |
| AGTTATCA | 0.0573 |

| Sequence | PBM E-score |
| --- | --- |
| CGCCTCCG | 0.0159 |
| AGAACTAT | 0.165 |
| ACCCGAGC | 0.229 |
| TGTATCAA | 0.151 |
| AGTTGTAT | 0.159 |
| ATTACGGG | 0.0347 |
| GAGCGTTA | 0.00862 |
| CTACGGAC | -0.014 |
| GATACGGA | 0.303 |
| ATTGGCAC | -0.0978 |
| TAAGATCA | 0.00607 |
| GAATATGC | 0.0187 |
| GCAAGCCA | -0.124 |
| AGACACCA | -0.0439 |
| ACCCCGCA | -0.0654 |
| CCTGTTGA | 0.069 |
| AGAGTACA | 0.03 |
| AGGCAAAT | 0.0186 |
| AAAAACAG | 0.115 |
| AACGGAAC | 0.333 |
| TCGACCCA | -0.126 |
| ATGCATGC | -0.0272 |
| AGCAATAA | 0.00255 |
| GACTTGCA | 0.0922 |
| AGATCGCT | -0.0328 |

| Sequence | PBM E-score |
| --- | --- |
| ATTCAAAT | 0.171 |
| CTCGCTAA | -0.0577 |
| GAACGCGC | 0.163 |
| GCGACGAC | -0.249 |
| AGAGTGGA | -0.184 |
| CCATAGAG | -0.11 |
| GCCGTTCA | 0.0622 |
| GAGACCTA | -0.186 |
| ACCACAAT | -0.17 |
| AATTCATG | 0.216 |
| GCGGATCC | 0.161 |
| CCACAAGG | -0.183 |
| CCACTAGC | -0.285 |
| CAATGCCC | -0.177 |
| CACCGATC | 0.0488 |
| AGGTGAAA | 0.0594 |
| ACTCACAA | 0.0218 |
| CAGCAATG | -0.296 |
| AGACGGTG | -0.238 |
| CAAGACAG | -0.0215 |
| ACGAGTTC | -0.0111 |
| CTACCTTC | 0.0363 |
| ACACAGAT | -2e-05 |
| CCCAGCGA | -0.236 |
| GGCCAACA | -0.0401 |

| Sequence | PBM E-score |
| --- | --- |
| GCCGCCGC | 0.0787 |
| ATGCCGAC | 0.243 |
| ACCTCTCA | -0.217 |
| ATGGGGAC | -0.22 |
| CTACTAAC | 0.0895 |
| AACGCCAC | -0.023 |
| CATGATTA | 0.218 |
| CAAAGACG | -0.0328 |
| ACTACCCG | 0.0408 |
| AAAGCAGC | 0.101 |
| CTCATCGA | -0.0305 |
| ATGAACAG | 0.17 |
| CAGGCGTC | -0.185 |
| ACTGACAG | 0.039 |
| AGGCTGAC | -0.164 |
| CCATAATC | -0.0871 |
| ATGCCGTG | 0.115 |
| AAGCTAGC | -0.0261 |
| ACGAGAGT | -0.115 |
| CAATCGAC | -0.149 |
| AGCTTAGC | -0.0666 |
| AAAGCTGA | 0.0558 |
| GTTATTTA | 0.16 |
| AGGTTTCC | -0.0643 |
| AGAGGAAC | 0.0137 |

Pulled one by one from the list above (four):

| Sequence | PBM E-score |
| --- | --- |
| CAATAAAC | 0.204 |
| ACCCCGCA | -0.0654 |
| CAGTGGAG | -0.0375 |
| CAGTGAGG | -0.341 |

(list continues)

| Sequence | PBM E-score |
| --- | --- |
| CTCCTCCA | -0.0993 |
| ATGAATAG | -0.0174 |
| AGCGTTAG | -0.214 |
| CCCTTAGG | -0.19 |
| GTGAAAAA | 0.232 |
| AGATCTAA | 0.0189 |
| AGAGTGCG | -0.0685 |
| GCCCGTAA | -0.00023 |
| CAGAGAAG | 0.0382 |
| GGAATAGA | 0.135 |
| GAAGTTGA | 0.0512 |
| AAGGGTAT | -0.157 |
| CGACCGAA | 0.273 |
| AGAGTAAT | 0.234 |
| TCATTGCA | 0.0521 |
| TCTCAACA | 0.104 |
| GAACTCGC | 0.118 |
| CCCGCGCC | 0.00518 |
| AATTAGCG | -0.00252 |
| AGAACGTA | -0.129 |
| AGTAGCCG | 0.198 |
| ACTTCCAG | -0.112 |

Looked up above.
Under PBM E-score, AGAGTGCG shows -0.0685
Under PBM E-score, TCATTGCA shows 0.0521
